In article doi:10.1101/583542 (bioRxiv, 2019):
These are yes or no findings as the source states them, for the method shown. Some binding calls cover weakened binding; strength is not graded here.

The chains behind the UniProt entries cited, without tags or fusion partners. Where a name states a change or a piece, a line headed by the entry shows the natural chain unless it says otherwise.
UniProt O82811: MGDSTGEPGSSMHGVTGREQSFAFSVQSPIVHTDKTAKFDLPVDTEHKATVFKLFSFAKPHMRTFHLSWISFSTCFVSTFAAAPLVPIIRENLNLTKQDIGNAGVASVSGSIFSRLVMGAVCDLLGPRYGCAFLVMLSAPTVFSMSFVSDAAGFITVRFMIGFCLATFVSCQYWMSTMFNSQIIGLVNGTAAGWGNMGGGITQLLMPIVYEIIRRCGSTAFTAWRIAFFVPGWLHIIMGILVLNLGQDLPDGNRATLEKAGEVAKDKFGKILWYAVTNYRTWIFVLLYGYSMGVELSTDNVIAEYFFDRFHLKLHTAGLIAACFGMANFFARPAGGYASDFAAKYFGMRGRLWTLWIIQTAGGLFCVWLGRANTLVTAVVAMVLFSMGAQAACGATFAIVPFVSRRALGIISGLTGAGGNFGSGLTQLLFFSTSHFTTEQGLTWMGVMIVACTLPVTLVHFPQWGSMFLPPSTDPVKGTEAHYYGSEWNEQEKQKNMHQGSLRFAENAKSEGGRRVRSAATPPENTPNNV

Key:
Assay in all cases: native gel or EMSA
[1] = biological target: NRT2.1 S501A (transgenic plants) (Arabidopsis thaliana) (UniProt O82811)
[2] = biological target: NRT2.1 (wild type, Arabidopsis thaliana Col roots) (Arabidopsis thaliana (endogenous in Col roots)) (UniProt O82811)
[3] = biological target: NRT2.1 S501D (transgenic plants) (Arabidopsis thaliana) (UniProt O82811)

Measured: binding

B1: NAR2.1 (Arabidopsis thaliana roots) (protein, UniProt Q9FGS5 23-210)
chain: AEKVRLFKELDKGALDVTTKPSREGPGVVLDAGKDTLNITWTLSSIGSKREAEFKIIKVKLCYAPPSQVDRPWRKTHDELFKDKTCPHKIIAKPYDKTLQSTTWTLERDIPTGTYFVRAYAVDAIGHEVAYGQSTDDAKKTNLFSVQAISGRHASLDIASICFSVFSVVALVVFFVNEKRKAKIEQSK
binds: all assays above
